Values of other authors, collected in patent US20100190686A1, “NOVEL SECRETED PROTEINS OF ADIPOCYTES FOR DIAGNOSTIC PURPOSES” (The University of Georgia Research Foundation, priority 2007, published 2010).
At least one compound was matched to its structure with a doubt left.

Conditions: type 2 diabetes, randomized controlled trial; cited from earlier work

Structure (SMILES): CN(CCOc1ccc(CC2SC(=O)NC2=O)cc1)c1ccccn1 (stereo not shown) [rosiglitazone]
- cumulative incidence of monotherapy failure at 5 years: 15%
